Test: Pharmacokinetics of naproxen in plasma following intravenous administration of PDD-Naproxen or naproxen in rats
Assay type: in vivo
Details: rat, 0.55 mg/kg

COc1ccc2cc([C@H](C)C(=O)O)ccc2c1 [Naproxen, (S)-(+)-methoxy-α-methyl-2-naphthaleneacetic acid, reference compound]
AUC(0-inf): 243 ng·h/mL
